This is an account of results in paper PMC3581772.

This assay has as its target T1, reduced and carboxymethylated α-lactalbumin, P00711.
T1 chain: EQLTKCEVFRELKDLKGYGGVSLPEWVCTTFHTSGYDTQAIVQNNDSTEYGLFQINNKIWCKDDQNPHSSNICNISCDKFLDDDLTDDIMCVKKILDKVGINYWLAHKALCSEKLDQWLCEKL
The experiment in a line: thioflavin T fluorescence of fibril formation; Supplementary Fig. 3, conditions not shown; the abstract's summary names fluorescence technology. Particulars: remark: other sources report otherwise.

No constants are given. Whether binding was seen depends on the method and setting. Some entries that bind do so weakly or less than the wild type.

B1: reduced and carboxymethylated α-lactalbumin, P00711 20-142 (protein)
chain: EQLTKCEVFRELKDLKGYGGVSLPEWVCTTFHTSGYDTQAIVQNNDSTEYGLFQINNKIWCKDDQNPHSSNICNISCDKFLDDDLTDDIMCVKKILDKVGINYWLAHKALCSEKLDQWLCEKL
modifications: here or on the partner: reduced and carboxymethylated; reduced and carboxymethylated
With B1, the binding result is recorded as “binds”.
